The target in experiment [1] is LexA-AV2Δ10N (AV2 lacking 10 amino acids in pEG202 vector) (Tomato leaf curl Palampur virus). The experiment can be described thus: two-hybrid; LexA bait (pEG202) and B42 prey (pJG4-5) in yeast EGY48; library screen and pairwise test; growth on YNB (gal) -ura -trp -his -leu and β-X-gal assay.
Experiment [2] deals with bicoid homeodomain (pRHFM1). The experiment is described as above.
Experiment [3] deals with AV2-nYFP (AV2 in pSPYCE(MR) vector) (Tomato leaf curl Palampur virus). The experiment can be described thus: split reporter; BiFC with YFP halves in N. benthamiana leaves, co-infiltrated with P19; confocal microscopy after 72 hours.
The target of experiment [4] is AC4-cYFP (AC4 in pSPYCE(M) vector) (Tomato leaf curl Palampur virus). Described as above.
The target of experiment [5] is AV2-cYFP (AV2 in pSPYCE(M) vector) (Tomato leaf curl Palampur virus). The description is as above.
The target is the same in experiment [6]. The experiment can be described thus: co-IP; extracts of N. benthamiana leaves co-expressing the BiFC constructs; 200 µg extract with 2 µg anti-HA antibody 6 h, protein G magnetic beads 10 h at 4 °C; blot with anti-cMyc.

Results are given in words; binding and its absence hold for the method and conditions named. For part of these data: Binding calls can cover weak binding; strength is not graded here. For part of these data: Binding seen in cells or lysates may run through a third protein. For part of these data: Sequences can lack the tags named with a protein.

B1: B42-SlCat2 FL (full length Cat2 in pJG4-5 vector) (enzyme, UniProt Q9XHH3 1-492)
chain: MDPYKYRPSSAFNSPFCTTNSGAPVFNNNSSLTVGARGPVLLEDYHLVEKLANFDRERIAERVVHARGASAKGFFEVTHDIAHLTCADFLRAPGVQTPVIVRFSTVIHERGSPETLRDPRGFAVKFYTREGNFDLVGNNFPVFFIRDGMKFPDMVHALKPNPKSHIQENWRVLDFFSHHPESLHMFTFLFDDIGIPQDYRHMDGSGVHTFTLINRAGKSTYVKFHWKPTCGVKSLLEEKAIRVGGANHSHATQDLYDSIAAGNYPEWKPSIQIMGPEHEDKFDFDPLDVTKTWPEDILPLQPVGRLVLNKNIDNFLYMNEQLAFCPSIVVPGVYYSDDKMLQTRIFSYSDTQRYRLGPNYLQLPANAPKCAHHNNHYDGSMNFMHRDEEIDYFPSRYDQVRHAEVYPIPSTVCSGKREKCIIQKENNFKQPGERYRSFTPDRQERFIRRWVEALSDPRITYEIRSIWITYWSQADKSLGQKLASRLNVRPSI
As for B1, the binding entry is on record as “binds” in experiment [1] and “no binding” in experiment [2].

B2: SlCat2-cYFP (Cat2 in pSPYNE173 vector) (enzyme, UniProt Q9XHH3 1-492)
chain: MDPYKYRPSSAFNSPFCTTNSGAPVFNNNSSLTVGARGPVLLEDYHLVEKLANFDRERIAERVVHARGASAKGFFEVTHDIAHLTCADFLRAPGVQTPVIVRFSTVIHERGSPETLRDPRGFAVKFYTREGNFDLVGNNFPVFFIRDGMKFPDMVHALKPNPKSHIQENWRVLDFFSHHPESLHMFTFLFDDIGIPQDYRHMDGSGVHTFTLINRAGKSTYVKFHWKPTCGVKSLLEEKAIRVGGANHSHATQDLYDSIAAGNYPEWKPSIQIMGPEHEDKFDFDPLDVTKTWPEDILPLQPVGRLVLNKNIDNFLYMNEQLAFCPSIVVPGVYYSDDKMLQTRIFSYSDTQRYRLGPNYLQLPANAPKCAHHNNHYDGSMNFMHRDEEIDYFPSRYDQVRHAEVYPIPSTVCSGKREKCIIQKENNFKQPGERYRSFTPDRQERFIRRWVEALSDPRITYEIRSIWITYWSQADKSLGQKLASRLNVRPSI
As for B2, the binding result in experiment [3] was “binds”.

B3: SlCat2-nYFP (Cat2 in pSPYNE(R)173 vector) (enzyme, UniProt Q9XHH3 1-492)
chain: MDPYKYRPSSAFNSPFCTTNSGAPVFNNNSSLTVGARGPVLLEDYHLVEKLANFDRERIAERVVHARGASAKGFFEVTHDIAHLTCADFLRAPGVQTPVIVRFSTVIHERGSPETLRDPRGFAVKFYTREGNFDLVGNNFPVFFIRDGMKFPDMVHALKPNPKSHIQENWRVLDFFSHHPESLHMFTFLFDDIGIPQDYRHMDGSGVHTFTLINRAGKSTYVKFHWKPTCGVKSLLEEKAIRVGGANHSHATQDLYDSIAAGNYPEWKPSIQIMGPEHEDKFDFDPLDVTKTWPEDILPLQPVGRLVLNKNIDNFLYMNEQLAFCPSIVVPGVYYSDDKMLQTRIFSYSDTQRYRLGPNYLQLPANAPKCAHHNNHYDGSMNFMHRDEEIDYFPSRYDQVRHAEVYPIPSTVCSGKREKCIIQKENNFKQPGERYRSFTPDRQERFIRRWVEALSDPRITYEIRSIWITYWSQADKSLGQKLASRLNVRPSI
As for B3, the values for the binding result in experiment [4], in experiment [5] and in experiment [6] were “no binding”, “binds” and “binds”, respectively.

Values taken from article PMC5775426.
